Measured values as given in patent publication US20250283871A1, “COMPOSITIONS AND METHODS FOR MODULATING THE INTERACTION BETWEEN SS18-SSX FUSION ONCOPROTEIN AND NUCLEOSOMES” (Dana-Farber Cancer Institute, Inc., priority 2020, published 2025).

B1: MAIP1 (protein, UniProt Q8WWC4 97-291, looked up)
m-AAA protease-interacting …: STEEKPQQHQKTKMIVLGFSNPINWVRTRIKAFLIWAYFDKEFSITEFSEGAKQAFAHVSKLLSQCKFDLLEELVAKEVLHALKEKVTSLPDNHKNALAANIDEIVFTSTGDISIYYDEKGRKFVNILMCFWYLTSANIPSETLRGASVFQVKLGNQNVETKQLLSASYEFQREFTQGVKPDWTIARIEHSKLLE
B2: ATP2B1 (protein, UniProt P20020 2-1220, looked up)
Plasma membrane …: GDMANNSVAYSGVKNSLKEANHDGDFGITLAELRALMELRSTDALRKIQESYGDVYGICTKLKTSPNEGLSGNPADLERREAVFGKNFIPPKKPKTFLQLVWEALQDVTLIILEIAAIVSLGLSFYQPPEGDNALCGEVSVGEEEGEGETGWIEGAAILLSVVCVVLVTAFNDWSKEKQFRGLQSRIEQEQKFTVIRGGQVIQIPVADITVGDIAQVKYGDLLPADGILIQGNDLKIDESSLTGESDHVKKSLDKDPLLLSGTHVMEGSGRMVVTAVGVNSQTGIIFTLLGAGGEEEEKKDEKKKEKKNKKQDGAIENRNKAKAQDGAAMEMQPLKSEEGGDGDEKDKKKANLPKKEKSVLQGKLTKLAVQIGKAGLLMSAITVIILVLYFVIDTFWVQKRPWLAECTPIYIQYFVKFFIIGVTVLVVAVPEGLPLAVTISLAYSVKKMMKDNNLVRHLDACETMGNATAICSDKTGTLTMNRMTVVQAYINEKHYKKVPEPEAIPPNILSYLVTGISVNCAYTSKILPPEKEGGLPRHVGNKTECALLGLLLDLKRDYQDVRNEIPEEALYKVYTFNSVRKSMSTVLKNSDGSYRIFSKGASEIILKKCFKILSANGEAKVFRPRDRDDIVKTVIEPMASEGLRTICLAFRDFPAGEPEPEWDNENDIVTGLTCIAVVGIEDPVRPEVPDAIKKCQRAGITVRMVTGDNINTARAIATKCGILHPGEDFLCLEGKDFNRRIRNEKGEIEQERIDKIWPKLRVLARSSPTDKHTLVKGIIDSTVSDQRQVVAVTGDGTNDGPALKKADVGFAMGIAGTDVAKEASDIILTDDNFTSIVKAVMWGRNVYDSISKFLQFQLTVNVVAVIVAFTGACITQDSPLKAVQMLWVNLIMDTLASLALATEPPTESLLLRKPYGRNKPLISRTMMKNILGHAFYQLVVVFTLLFAGEKFFDIDSGRNAPLHAPPSEHYTIVFNTFVLMQLFNEINARKIHGERNVFEGIFNNAIFCTIVLGTFVVQIIIVQFGGKPFSCSELSIEQWLWSIFLGMGTLLWGQLISTIPTSRLKFLKEAGHGTQKEEIPEEELAEDVEEIDHAERELRRGQILWFRGLNRIQTQIRVVNAFRSSLYEGLEKPESRSSIHNFMTHPEFRIEDSEPHIPLIDDTDAEDDAPTKRNSSPPPSPNKNNNAVDSGIHLTIEMNKSATSSSPGSPLHSLETSL
B3: NDC1 (protein, UniProt Q9BTX1 1-674, looked up)
Nucleoporin NDC1: MATAVSRPCAGRSRDILWRVLGWRIVASIVWSVLFLPICTTVFIIFSRIDLFHPIQWLSDSFSDLYSSYVIFYFLLLSVVIIIISIFNVEFYAVVPSIPCSRLALIGKIIHPQQLMHSFIHAAMGMVMAWCAAVITQGQYSFLVVPCTGTNSFGSPAAQTCLNEYHLFFLLTGAFMGYSYSLLYFVNNMNYLPFPIIQQYKFLRFRRSLLLLVKHSCVESLFLVRNFCILYYFLGYIPKAWISTAMNLHIDEQVHRPLDTVSGLLNLSLLYHVWLCGVFLLTTWYVSWILFKIYATEAHVFPVQPPFAEGSDECLPKVLNSNPPPIIKYLALQDLMLLSQYSPSRRQEVFSLSQPGGHPHNWTAISRECLNLLNGMTQKLILYQEAAATNGRVSSSYPVEPKKLNSPEETAFQTPKSSQMPRPSVPPLVKTSLFSSKLSTPDVVSPFGTPFGSSVMNRMAGIFDVNTCYGSPQSPQLIRRGPRLWTSASDQQMTEFSNPSPSTSISAEGKTMRQPSVIYSWIQNKREQIKNFLSKRVLIMYFFSKHPEASIQAVFSDAQMHIWALEGLSHLVAASFTEDRFGVVQTTLPAILNTLLTLQEAVDKYFKLPHASSKPPRISGSLVDTSYKTLRFAFRASLKTAIYRITTTFGEHLNAVQASAEHQKRLQQFLEFKE
B4: MAGT1 (protein, UniProt Q9H0U3 30-335, looked up)
Dolichyl-diphosphooligosacchar …: QRKKEMVLSEKVSQLMEWTNKRPVIRMNGDKFRRLVKAPPRNYSVIVMFTALQLHRQCVVCKQADEEFQILANSWRYSSAFTNRIFFAMVDFDEGSDVFQMLNMNSAPTFINFPAKGKPKRGDTYELQVRGFSAEQIARWIADRTDVNIRVIRPPNYAGPLMLGLLLAVIGGLVYLRRSNMEFLFNKTGWAFAALCFVLAMTSGQMWNHIRGPPYAHKNPHTGHVNYIHGSSQAQFVAETHIVLLFNGGVTLGMVLLCEAATSDMDIGKRKIMCVAGIGLVVLFFSWMLSIFRSKYHGYPYSFLMS
B5: NT5DC2 (protein, UniProt Q9H857 1-520, looked up)
5'-nucleotidase …: MRVESGSAQERGILLESLSTLLEKTTASHEGRAPGNRELTDLLPPEVCSLLNPAAIYANNEISLRDVEVYGFDYDYTLAQYADALHPEIFSTARDILIEHYKYPEGIRKYDYNPSFAIRGLHYDIQKSLLMKIDAFHYVQLGTAYRGLQPVPDEEVIELYGGTQHIPLYQMSGFYGKGPSIKQFMDIFSLPEMALLSCVVDYFLGHSLEFDQAHLYKDVTDAIRDVHVKGLMYQWIEQDMEKYILRGDETFAVLSRLVAHGKQLFLITNSPFSFVDKGMRHMVGPDWRQLFDVVIVQADKPSFFTDRRKPFRKLDEKGSLQWDRITRLEKGKIYRQGNLFDFLRLTEWRGPRVLYFGDHLYSDLADLMLRHGWRTGAIIPELEREIRIINTEQYMHSLTWQQALTGLLERMQTYQDAESRQVLAAWMKERQELRCITKALFNAQFGSIFRTFHNPTYFSRRLVRFSDLYMASLSCLLNYRVDFTFYPRRTPLQHEAPLWMDQLCTGCMKTPFLGDMAHIR
B6: DNAJC10 (protein, UniProt Q8IXB1 33-793, looked up)
DnaJ homolog subfamily C …: DQDFYSLLGVSKTASSREIRQAFKKLALKLHPDKNPNNPNAHGDFLKINRAYEVLKDEDLRKKYDKYGEKGLEDNQGGQYESWNYYRYDFGIYDDDPEIITLERREFDAAVNSGELWFVNFYSPGCSHCHDLAPTWRDFAKEVDGLLRIGAVNCGDDRMLCRMKGVNSYPSLFIFRSGMAPVKYHGDRSKESLVSFAMQHVRSTVTELWTGNFVNSIQTAFAAGIGWLITFCSKGGDCLTSQTRLRLSGMLDGLVNVGWMDCATQDNLCKSLDITTSTTAYFPPGATLNNKEKNSILFLNSLDAKEIYLEVIHNLPDFELLSANTLEDRLAHHRWLLFFHFGKNENSNDPELKKLKTLLKNDHIQVGRFDCSSAPDICSNLYVFQPSLAVFKGQGTKEYEIHHGKKILYDILAFAKESVNSHVTTLGPQNFPANDKEPWLVDFFAPWCPPCRALLPELRRASNLLYGQLKFGTLDCTVHEGLCNMYNIQAYPTTVVFNQSNIHEYEGHHSAEQILEFIEDLMNPSVVSLTPTTFNELVTQRKHNEVWMVDFYSPWCHPCQVLMPEWKRMARTLTGLINVGSIDCQQYHSFCAQENVQRYPEIRFFPPKSNKAYHYHSYNGWNRDAYSLRIWGLGFLPQVSTDLTPQTFSEKVLQGKNHWVIDFYAPWCGPCQNFAPEFELLARMIKGKVKAGKVDCQAYAQTCQKAGIRAYPTVKFYFYERAKRNFQEEQINTRDAKAIAALISEKLETLRNQGKRNKDEL
B7: RARS2 (protein, UniProt Q5T160 17-578, looked up)
Probable arginine--tRNA …: LNLPPENLITSISAVPISQKEEVADFQLSVDSLLEKDNDHSRPDIQVQAKRLAEKLRCDTVVSEISTGQRTVNFKINRELLTKTVLQQVIEDGSKYGLKSELFSGLPQKKIVVEFSSPNVAKKFHVGHLRSTIIGNFIANLKEALGHQVIRINYLGDWGMQFGLLGTGFQLFGYEEKLQSNPLQHLFEVYVQVNKEAADDKSVAKAAQEFFQRLELGDVQALSLWQKFRDLSIEEYIRVYKRLGVYFDEYSGESFYREKSQEVLKLLESKGLLLKTIKGTAVVDLSGNGDPSSICTVMRSDGTSLYATRDLAAAIDRMDKYNFDTMIYVTDKGQKKHFQQVFQMLKIMGYDWAERCQHVPFGVVQGMKTRRGDVTFLEDVLNEIQLRMLQNMASIKTTKELKNPQETAERVGLAALIIQDFKGLLLSDYKFSWDRVFQSRGDTGVFLQYTHARLHSLEETFGCGYLNDFNTACLQEPQSVSILQHLLRFDEVLYKSSQDFQPRHIVSYLLTLSHLAAVAHKTLQIKDSPPEVAGARLHLFKAVRSVLANGMKLLGITPVCRM
B8: UFL1 (protein, UniProt O94874 2-794, looked up)
E3 UFM1-protein ligase 1: ADAWEEIRRLAADFQRAQFAEATQRLSERNCIEIVNKLIAQKQLEVVHTLDGKEYITPAQISKEMRDELHVRGGRVNIVDLQQVINVDLIHIENRIGDIIKSEKHVQLVLGQLIDENYLDRLAEEVNDKLQESGQVTISELCKTYDLPGNFLTQALTQRLGRIISGHIDLDNRGVIFTEAFVARHKARIRGLFSAITRPTAVNSLISKYGFQEQLLYSVLEELVNSGRLRGTVVGGRQDKAVFVPDIYSRTQSTWVDSFFRQNGYLEFDALSRLGIPDAVSYIKKRYKTTQLLFLKAACVGQGLVDQVEASVEEAISSGTWVDIAPLLPTSLSVEDAAILLQQVMRAFSKQASTVVFSDTVVVSEKFINDCTELFRELMHQKAEKEMKNNPVHLITEEDLKQISTLESVSTSKKDKKDERRRKATEGSGSMRGGGGGNAREYKIKKVKKKGRKDDDSDDESQSSHTGKKKPEISFMFQDEIEDFLRKHIQDAPEEFISELAEYLIKPLNKTYLEVVRSVFMSSTTSASGTGRKRTIKDLQEEVSNLYNNIRLFEKGMKFFADDTQAALTKHLLKSVCTDITNLIFNFLASDLMMAVDDPAAITSEIRKKILSKLSEETKVALTKLHNSLNEKSIEDFISCLDSAAEACDIMVKRGDKKRERQILFQHRQALAEQLKVTEDPALILHLTSVLLFQFSTHSMLHAPGRCVPQIIAFLNSKIPEDQHALLVKYQGLVVKQLVSQSKKTGQGDYPLNNELDKEQEDVASTTRKELQELSSSIKDLVLKSRKSSVTEE
B9: TMEM33 (protein, UniProt P57088 2-247, looked up)
Transmembrane protein 33: ADTTPNGPQGAGAVQFMMTNKLDTAMWLSRLFTVYCSALFVLPLLGLHEAASFYQRALLANALTSALRLHQRLPHFQLSRAFLAQALLEDSCHYLLYSLIFVNSYPVTMSIFPVLLFSLLHAATYTKKVLDARGSNSLPLLRSVLDKLSANQQNILKFIACNEIFLMPATVFMLFSGQGSLLQPFIYYRFLTLRYSSRRNPYCRTLFNELRIVVEHIIMKPACPLFVRRLCLQSIAFISRLAPTVP

The molecules below were run on BAF complex subunits and histone proteins (assay: Mass spectrometry proteomics of purified HA-SS18 WT and HA-SS18-SSX1 complexes (Tables 5A-5E)). Conditions: HA-SS18SSX1 purification, NE (soluble nuclear extract) fraction, HEK-293T; peptides per identified protein.
Set-up: species or system human

| Molecule | Total (total peptides) | Unique (unique peptides) |
| --- | --- | --- |
| B1 | 3 | 3 |
| B2 | 3 | 3 |
| B3 | 3 | 3 |
| B4 | 3 | 3 |
| B5 | 3 | 3 |
| B6 | 3 | 3 |
| B7 | 3 | 3 |
| B8 | 3 | 3 |
| B9 | 3 | 3 |

Same assay, conditions: HA-SS18WT_NE_peptides: HA-SS18 WT complexes purified from nuclear extract (NE), HEK-293T; label = protein identified (Gene Symbol)

| Molecule | Total (peptides) | Unique (peptides) |
| --- | --- | --- |
| B5 | 9 | 9 |
| B7 | 3 | 3 |
| B8 | 3 | 3 |

Same assay, conditions: HA-SS18WT_NE_peptides: proteins co-purified with HA-SS18 WT from nuclear extract (NE), HEK-293T

| Molecule | Total (peptides) | Unique (peptides) |
| --- | --- | --- |
| B1 | 1 | 1 |
| B4 | 2 | 2 |
| B6 | 1 | 1 |
| B9 | 2 | 2 |
